Measured values published in the supplement of paper PMC4604168 (melanoma cell lines).
The list shows a part of the results. Repeats are few or missing, and single values can be far off.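 The apoptosis fraction was the count of cleaved-PARP antibody-stained nuclei relative to all DNA-stained nuclei, imaged in 1,536-well plates. Screening doses were set so most cells survived, and baseline and induced cleaved-PARP levels vary greatly across cell lines.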

How the values were obtained:
Test in all cases: cleaved PARP positive nuclei fraction relative to DMSO control; melanoma cells; higher = more apoptosis
Settings in all cases: library dose: low library concentration; 72 h
MZ2-MEL = tested on: MZ2-MEL
MeWo = tested on: MeWo
RPMI7951 = tested on: RPMI7951
RVH-421 = tested on: RVH-421
SkMel28 = tested on: SkMel28
SkMel2 = tested on: SkMel2
SkMel30 = tested on: SkMel30
UACC62 = tested on: UACC62
WM115 = tested on: WM115
WM1716 = tested on: WM1716
WM1745 = tested on: WM1745
WM3526 = tested on: WM3526
WM3619 = tested on: WM3619
WM451Lu = tested on: WM451Lu

SMILES | cleaved PARP positive nuclei fraction (MZ2-MEL) [%] | cleaved PARP positive nuclei fraction (MeWo) [%] | cleaved PARP positive nuclei fraction (RPMI7951) [%] | cleaved PARP positive nuclei fraction (RVH-421) [%] | cleaved PARP positive nuclei fraction (SkMel28) [%] | cleaved PARP positive nuclei fraction (SkMel2) [%] | cleaved PARP positive nuclei fraction (SkMel30) [%] | cleaved PARP positive nuclei fraction (UACC62) [%] | cleaved PARP positive nuclei fraction (WM115) [%] | cleaved PARP positive nuclei fraction (WM1716) [%] | cleaved PARP positive nuclei fraction (WM1745) [%] | cleaved PARP positive nuclei fraction (WM3526) [%] | cleaved PARP positive nuclei fraction (WM3619) [%] | cleaved PARP positive nuclei fraction (WM451Lu) [%]
O=C(/C=C/c1cccnc1)NCCCCC1CCN(C(=O)c2ccccc2)CC1 + NC1(c2ccc(-c3nc4ccn5c(=O)[nH]nc5c4cc3-c3ccccc3)cc2)CCC1 [MK2206] (first compound 0.01 µM, partner dose 0.4 µM) | 571 | 93.1 | 130 | 703 | 146 | 831 | 170 | 77.7 | 99 | 22.6 | 112 | 255 | 124 | 77.9
CCCCCCCCCCCCCCCCCCOP(=O)([O-])OC1CC[N+](C)(C)CC1 [Perifosine] + Cc1ccc(Nc2nccc(N(C)c3ccc4c(C)n(C)nc4c3)n2)cc1S(N)(=O)=O [Pazopanib] (first compound 0.4 µM, partner dose 0.4 µM) | 68.8 | 68.5 | 280 | 67.5 | 77.4 | 49.2 | 44.7 | 82.3 | 101 | 103 | 95.8 | 122 | 111 | 96.8
CCCCCCCCCCCCCCCCCCOP(=O)([O-])OC1CC[N+](C)(C)CC1 [Perifosine] + C[C@@H](N)c1ccc(C(=O)Nc2ccnc3[nH]ccc23)cc1 [RKI983] (first compound 0.4 µM, partner dose 0.4 µM) | 123 | 131 | 135 | 167 | 92.1 | 196 | 95.9 | 58.8 | 123 | 116 | 101 | 87.3 | 106 | 61.6
O=C(/C=C/c1cccnc1)NCCCCC1CCN(C(=O)c2ccccc2)CC1 + COc1ccc(C2=N[C@@H](c3ccc(Cl)cc3)[C@@H](c3ccc(Cl)cc3)N2C(=O)N2CCNC(=O)C2)c(OC(C)C)c1 [Nutlin-3] (first compound 0.01 µM, partner dose 0.1 µM) | 316 | 55.8 | 34.9 | 159 | 83.8 | 638 | 128 | 91.7 | 40.6 | 27 | 95.9 | 80.7 | 112 | 177
N#CC[C@H](C1CCCC1)n1cc(-c2ncnc3[nH]ccc23)cn1 [ruxolitinib] + O=c1[nH]nc(Sc2ncc([N+](=O)[O-])s2)n1-c1ccc2c(c1)OCCO2 [BI78D3] (first compound 1 µM, partner dose 0.2 µM) | 94.5 | 212 | 186 | 85.2 | 81.3 | 109 | 79.5 | 40.7 | 54.6 | 35.9 | 101 | 36.1 | 96 | 68.5
N#CC[C@H](C1CCCC1)n1cc(-c2ncnc3[nH]ccc23)cn1 [ruxolitinib] + COCC[n+]1c2c(n(Cc3cnccn3)c1C)C(=O)c1ccccc1C2=O [YM155] (first compound 1 µM, partner dose 0.0004 µM) | 88.6 | 298 | 150 | 133 | 193 | 125 | 59.5 | 260 | 47.1 | 1330 | 89.4 | 260 | 77 | 64.2
N#CC[C@H](C1CCCC1)n1cc(-c2ncnc3[nH]ccc23)cn1 [ruxolitinib] + CN1CCN(c2ccc3nc(-c4c(N)c5c(F)cccc5[nH]c4=O)[nH]c3c2)CC1 [Dovitinib] (first compound 1 µM, partner dose 0.1 µM) | 122 | 97.7 | 45.9 | 106 | 27.7 | 70.3 | 94.9 | 65.4 | 77.1 | 30 | 94.2 | 20 | 77.9 | 87.8
CCCCCCCCCCCCCCCCCCOP(=O)([O-])OC1CC[N+](C)(C)CC1 [Perifosine] + Cn1sc(=O)n(Cc2ccccc2)c1=O [TDZD-8] (first compound 0.4 µM, partner dose 0.4 µM) | 69.5 | 77.5 | 130 | 216 | 103 | 67.5 | 40.8 | 182 | 124 | 39 | 108 | 85.8 | 92.2 | 63.7
Cc1cn(-c2cc(NC(=O)c3ccc(C)c(Nc4nccc(-c5cccnc5)n4)c3)cc(C(F)(F)F)c2)cn1 [nilotinib] + O=C(O)c1ccc2c(c1)nc(Nc1cccc(Cl)c1)c1ccncc12 [CX4945] (first compound 0.2 µM, partner dose 0.4 µM) | 115 | 74.4 | 112 | 47.7 | 82.7 | 118 | 20.1 | 175 | 106 | 79.9 | 108 | 82.4 | 90 | 29
